Reference: patent publication US9018437
Results are given in words; binding and its absence hold for the method and conditions named. Some binding calls cover weakened binding; strength is not graded here.

Protein sequences, listed by entry. Tags and fused reporters are not part of them. Residues count along the entry.
UniProt P04114, residues 28-4563: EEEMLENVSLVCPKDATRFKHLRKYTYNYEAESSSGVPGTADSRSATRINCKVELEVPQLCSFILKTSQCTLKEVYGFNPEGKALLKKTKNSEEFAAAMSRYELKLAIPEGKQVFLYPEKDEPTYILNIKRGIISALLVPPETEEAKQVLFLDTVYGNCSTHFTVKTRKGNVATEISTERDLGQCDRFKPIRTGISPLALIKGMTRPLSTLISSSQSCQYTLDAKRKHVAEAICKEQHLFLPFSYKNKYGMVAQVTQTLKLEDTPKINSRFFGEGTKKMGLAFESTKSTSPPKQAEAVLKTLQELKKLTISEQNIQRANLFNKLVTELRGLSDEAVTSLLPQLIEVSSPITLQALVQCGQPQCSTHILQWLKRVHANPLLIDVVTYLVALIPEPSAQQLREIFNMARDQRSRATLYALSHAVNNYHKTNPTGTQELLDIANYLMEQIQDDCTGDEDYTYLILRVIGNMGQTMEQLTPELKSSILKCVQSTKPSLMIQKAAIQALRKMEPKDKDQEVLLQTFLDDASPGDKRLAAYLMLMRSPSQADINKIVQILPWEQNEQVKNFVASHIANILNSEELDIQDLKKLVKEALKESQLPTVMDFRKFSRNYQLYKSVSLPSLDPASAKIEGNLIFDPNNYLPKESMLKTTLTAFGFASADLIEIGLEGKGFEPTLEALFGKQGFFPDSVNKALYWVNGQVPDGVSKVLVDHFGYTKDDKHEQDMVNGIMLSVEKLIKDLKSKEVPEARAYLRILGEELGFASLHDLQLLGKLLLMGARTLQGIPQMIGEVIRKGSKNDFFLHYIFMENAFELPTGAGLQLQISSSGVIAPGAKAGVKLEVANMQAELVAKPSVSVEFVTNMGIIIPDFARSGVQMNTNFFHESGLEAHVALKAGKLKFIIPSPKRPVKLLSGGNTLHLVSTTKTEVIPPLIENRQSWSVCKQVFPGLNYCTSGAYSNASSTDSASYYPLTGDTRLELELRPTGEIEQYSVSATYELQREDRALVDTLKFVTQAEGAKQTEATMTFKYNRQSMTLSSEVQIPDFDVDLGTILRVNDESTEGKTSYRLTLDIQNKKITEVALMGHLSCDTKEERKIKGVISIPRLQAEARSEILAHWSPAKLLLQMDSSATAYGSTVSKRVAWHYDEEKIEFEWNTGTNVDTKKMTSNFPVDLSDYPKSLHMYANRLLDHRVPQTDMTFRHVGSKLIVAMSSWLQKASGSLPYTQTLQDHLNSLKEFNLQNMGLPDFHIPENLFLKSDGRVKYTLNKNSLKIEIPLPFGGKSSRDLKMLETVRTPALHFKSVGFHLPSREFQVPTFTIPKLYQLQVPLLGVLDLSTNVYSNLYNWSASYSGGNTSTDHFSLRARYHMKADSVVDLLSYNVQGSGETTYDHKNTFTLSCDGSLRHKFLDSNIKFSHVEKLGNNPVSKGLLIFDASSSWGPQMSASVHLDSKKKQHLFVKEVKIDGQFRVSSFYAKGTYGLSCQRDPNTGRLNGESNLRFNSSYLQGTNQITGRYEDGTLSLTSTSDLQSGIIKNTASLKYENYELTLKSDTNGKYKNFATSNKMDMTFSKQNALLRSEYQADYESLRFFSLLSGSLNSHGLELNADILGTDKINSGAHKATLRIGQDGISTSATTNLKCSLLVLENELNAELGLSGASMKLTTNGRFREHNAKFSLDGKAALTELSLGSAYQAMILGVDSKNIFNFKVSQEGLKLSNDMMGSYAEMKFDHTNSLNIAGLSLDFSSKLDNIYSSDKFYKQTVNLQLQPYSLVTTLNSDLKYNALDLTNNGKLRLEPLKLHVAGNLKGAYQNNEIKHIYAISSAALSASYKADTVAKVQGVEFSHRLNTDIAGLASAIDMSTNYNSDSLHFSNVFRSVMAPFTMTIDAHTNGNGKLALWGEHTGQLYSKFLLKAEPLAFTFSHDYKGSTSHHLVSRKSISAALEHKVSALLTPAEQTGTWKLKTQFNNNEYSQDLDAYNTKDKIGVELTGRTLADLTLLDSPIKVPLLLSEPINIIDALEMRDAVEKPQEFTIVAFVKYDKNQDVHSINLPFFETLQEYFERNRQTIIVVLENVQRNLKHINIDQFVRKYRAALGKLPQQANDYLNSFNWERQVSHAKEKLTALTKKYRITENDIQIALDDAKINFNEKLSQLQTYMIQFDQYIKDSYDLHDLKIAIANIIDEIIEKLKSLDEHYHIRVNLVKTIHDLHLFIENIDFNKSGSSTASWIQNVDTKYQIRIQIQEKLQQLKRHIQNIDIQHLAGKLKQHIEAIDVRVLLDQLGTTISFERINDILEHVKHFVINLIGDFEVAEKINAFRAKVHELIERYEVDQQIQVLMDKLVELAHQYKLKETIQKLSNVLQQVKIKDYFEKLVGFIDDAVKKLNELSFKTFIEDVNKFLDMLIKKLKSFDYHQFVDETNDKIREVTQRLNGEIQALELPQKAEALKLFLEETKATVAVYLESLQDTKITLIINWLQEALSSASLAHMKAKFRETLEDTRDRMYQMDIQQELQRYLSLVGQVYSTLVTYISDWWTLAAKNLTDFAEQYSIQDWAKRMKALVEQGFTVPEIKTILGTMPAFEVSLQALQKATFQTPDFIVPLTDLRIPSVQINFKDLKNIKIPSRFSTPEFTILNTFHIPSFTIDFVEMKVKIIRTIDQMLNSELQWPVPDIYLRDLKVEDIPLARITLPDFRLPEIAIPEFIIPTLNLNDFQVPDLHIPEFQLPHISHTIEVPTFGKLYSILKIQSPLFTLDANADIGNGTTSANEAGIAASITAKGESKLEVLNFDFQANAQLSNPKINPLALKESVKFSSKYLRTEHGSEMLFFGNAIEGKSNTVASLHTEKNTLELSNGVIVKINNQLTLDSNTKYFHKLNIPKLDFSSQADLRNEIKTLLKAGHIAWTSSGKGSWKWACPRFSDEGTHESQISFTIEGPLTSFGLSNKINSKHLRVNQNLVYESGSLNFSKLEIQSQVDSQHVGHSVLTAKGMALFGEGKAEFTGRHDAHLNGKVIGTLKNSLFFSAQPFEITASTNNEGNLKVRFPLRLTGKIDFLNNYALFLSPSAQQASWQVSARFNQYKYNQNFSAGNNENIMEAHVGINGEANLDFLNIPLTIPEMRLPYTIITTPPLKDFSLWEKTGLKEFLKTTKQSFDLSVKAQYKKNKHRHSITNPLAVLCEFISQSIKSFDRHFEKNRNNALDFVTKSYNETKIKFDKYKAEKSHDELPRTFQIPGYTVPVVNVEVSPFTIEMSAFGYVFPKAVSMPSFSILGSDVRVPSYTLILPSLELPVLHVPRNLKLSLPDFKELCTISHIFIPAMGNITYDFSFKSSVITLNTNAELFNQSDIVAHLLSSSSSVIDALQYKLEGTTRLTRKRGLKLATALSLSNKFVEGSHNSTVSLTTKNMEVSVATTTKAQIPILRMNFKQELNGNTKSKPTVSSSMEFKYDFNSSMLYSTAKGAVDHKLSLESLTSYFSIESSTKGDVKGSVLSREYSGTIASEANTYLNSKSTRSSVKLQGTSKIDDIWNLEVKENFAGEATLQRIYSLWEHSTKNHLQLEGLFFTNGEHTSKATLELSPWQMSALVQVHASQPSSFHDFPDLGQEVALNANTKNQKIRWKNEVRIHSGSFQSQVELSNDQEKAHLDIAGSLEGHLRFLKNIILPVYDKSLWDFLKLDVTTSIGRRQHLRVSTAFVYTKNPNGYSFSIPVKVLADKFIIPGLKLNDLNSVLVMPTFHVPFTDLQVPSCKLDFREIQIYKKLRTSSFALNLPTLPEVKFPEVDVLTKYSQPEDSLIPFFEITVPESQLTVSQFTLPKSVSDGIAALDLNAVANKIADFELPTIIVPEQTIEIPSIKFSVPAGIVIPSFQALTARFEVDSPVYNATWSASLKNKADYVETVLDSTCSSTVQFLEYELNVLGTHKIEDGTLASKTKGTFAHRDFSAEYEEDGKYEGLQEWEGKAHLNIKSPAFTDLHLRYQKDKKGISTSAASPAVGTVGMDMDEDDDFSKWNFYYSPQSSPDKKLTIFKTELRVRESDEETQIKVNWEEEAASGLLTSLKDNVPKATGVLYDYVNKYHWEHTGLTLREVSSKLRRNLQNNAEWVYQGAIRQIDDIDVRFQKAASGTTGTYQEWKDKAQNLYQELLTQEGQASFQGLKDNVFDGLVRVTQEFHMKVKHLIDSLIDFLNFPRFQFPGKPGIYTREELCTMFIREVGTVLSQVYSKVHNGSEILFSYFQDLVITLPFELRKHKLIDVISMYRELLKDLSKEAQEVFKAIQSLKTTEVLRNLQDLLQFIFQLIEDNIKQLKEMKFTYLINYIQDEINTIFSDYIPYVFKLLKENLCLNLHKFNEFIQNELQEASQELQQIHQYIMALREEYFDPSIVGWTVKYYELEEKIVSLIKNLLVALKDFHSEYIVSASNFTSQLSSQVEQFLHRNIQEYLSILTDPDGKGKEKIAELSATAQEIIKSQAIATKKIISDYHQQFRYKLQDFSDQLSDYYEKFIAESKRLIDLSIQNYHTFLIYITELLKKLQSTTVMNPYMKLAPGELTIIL
UniProt P08519, residues 20-2040: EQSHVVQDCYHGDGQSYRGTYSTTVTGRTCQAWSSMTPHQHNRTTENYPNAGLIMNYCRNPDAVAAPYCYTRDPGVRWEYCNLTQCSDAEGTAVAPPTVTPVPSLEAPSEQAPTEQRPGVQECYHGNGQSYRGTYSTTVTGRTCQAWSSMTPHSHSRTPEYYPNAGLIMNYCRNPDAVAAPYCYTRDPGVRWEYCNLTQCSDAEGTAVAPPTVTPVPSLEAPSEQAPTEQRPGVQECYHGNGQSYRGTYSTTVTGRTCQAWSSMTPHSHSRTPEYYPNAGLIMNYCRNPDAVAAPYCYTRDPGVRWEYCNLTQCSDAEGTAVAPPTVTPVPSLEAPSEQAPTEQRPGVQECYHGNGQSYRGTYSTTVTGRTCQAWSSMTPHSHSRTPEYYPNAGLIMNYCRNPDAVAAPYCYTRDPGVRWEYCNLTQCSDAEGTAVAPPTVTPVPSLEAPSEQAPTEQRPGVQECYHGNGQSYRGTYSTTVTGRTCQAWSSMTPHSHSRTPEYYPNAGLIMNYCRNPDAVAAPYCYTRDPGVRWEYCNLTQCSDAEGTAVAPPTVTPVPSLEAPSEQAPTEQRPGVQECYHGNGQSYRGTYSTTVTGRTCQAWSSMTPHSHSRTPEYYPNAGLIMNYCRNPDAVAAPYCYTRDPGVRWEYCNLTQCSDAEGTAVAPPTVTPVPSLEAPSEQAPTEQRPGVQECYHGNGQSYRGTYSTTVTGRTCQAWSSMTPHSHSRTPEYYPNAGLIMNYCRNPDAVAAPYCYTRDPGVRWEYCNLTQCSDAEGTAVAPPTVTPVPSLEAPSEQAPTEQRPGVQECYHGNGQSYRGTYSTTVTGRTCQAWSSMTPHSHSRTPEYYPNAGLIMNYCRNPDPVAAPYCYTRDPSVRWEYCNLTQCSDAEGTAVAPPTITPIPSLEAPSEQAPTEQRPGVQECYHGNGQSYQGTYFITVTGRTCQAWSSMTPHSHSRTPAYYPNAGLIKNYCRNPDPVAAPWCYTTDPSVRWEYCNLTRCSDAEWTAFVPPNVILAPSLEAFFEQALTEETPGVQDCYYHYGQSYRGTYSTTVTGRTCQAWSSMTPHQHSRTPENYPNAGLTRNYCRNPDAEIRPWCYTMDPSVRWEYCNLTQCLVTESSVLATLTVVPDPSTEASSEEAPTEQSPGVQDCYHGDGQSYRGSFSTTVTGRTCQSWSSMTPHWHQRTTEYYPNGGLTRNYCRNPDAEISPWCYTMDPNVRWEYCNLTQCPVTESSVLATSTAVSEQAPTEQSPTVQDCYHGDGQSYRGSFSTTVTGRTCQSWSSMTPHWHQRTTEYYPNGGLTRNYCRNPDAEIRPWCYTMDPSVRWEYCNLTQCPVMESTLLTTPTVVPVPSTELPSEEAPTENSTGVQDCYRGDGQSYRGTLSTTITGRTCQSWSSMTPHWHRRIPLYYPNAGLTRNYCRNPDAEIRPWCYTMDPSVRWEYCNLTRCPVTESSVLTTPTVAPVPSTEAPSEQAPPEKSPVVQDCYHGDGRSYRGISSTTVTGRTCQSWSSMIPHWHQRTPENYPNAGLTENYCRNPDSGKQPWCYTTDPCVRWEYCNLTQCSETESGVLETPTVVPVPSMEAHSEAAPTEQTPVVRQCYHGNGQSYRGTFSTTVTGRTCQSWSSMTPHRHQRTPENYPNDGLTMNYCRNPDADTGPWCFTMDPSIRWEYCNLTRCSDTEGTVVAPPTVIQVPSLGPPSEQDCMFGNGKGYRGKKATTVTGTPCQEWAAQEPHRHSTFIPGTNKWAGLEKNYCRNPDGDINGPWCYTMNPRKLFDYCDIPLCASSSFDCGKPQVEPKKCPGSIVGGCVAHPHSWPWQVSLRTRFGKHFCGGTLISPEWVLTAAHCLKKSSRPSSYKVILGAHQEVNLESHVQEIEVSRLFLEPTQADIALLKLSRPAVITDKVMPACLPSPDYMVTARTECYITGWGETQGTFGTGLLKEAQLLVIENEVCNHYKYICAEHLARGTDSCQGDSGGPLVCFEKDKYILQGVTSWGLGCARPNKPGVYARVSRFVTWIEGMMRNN

What was measured:
[1] = molecular target: human apolipoprotein B-100 (human) (UniProt P04114); test: SPIFE cholesterol profiling electrophoresis of transgenic mouse sera (FIG. 2)
[2] = molecular target: human apolipoprotein B-100 (human) (UniProt P04114); test: SPIFE cholesterol profile and immunofixation electrophoresis of Lp(a)+ GULO(-/-) mouse sera (FIGS. 6-8)
[3] = molecular target: human apolipoprotein B-100 (human) (UniProt P04114); test: SPIFE cholesterol profiling electrophoresis: Lp(a)-cholesterol band only in sera of human Lp(a)+; GULO(-/-) mice

Measured: binding

human apolipoprotein (a) (from UniProt P08519 20-2040)
binds: all assays above
